{"source": "patent US20030118510A1", "about": "(priority 2001, published 2003)", "test": "peptide synthesis", "conditions": "late stage modification step"}
{"substance": "Di-NαA1,NεB29-t-Boc-Insulin", "values": [{"measurement": "step yield", "value": 26.7, "unit": "%"}]}
